Data on 37 targets can be found in the supplement of paper PMC11732987, “Enantioselective OTUD7B fragment discovery through chemoproteomics screening and high-throughput optimisation” (Communications Chemistry, 2025).

By UniProt entry, the sequences of proteins in these tests, tags left out. Where a name states a change or a piece, a line headed by the entry shows the natural chain unless it says otherwise. Residues count along the entry.
UniProt P53396: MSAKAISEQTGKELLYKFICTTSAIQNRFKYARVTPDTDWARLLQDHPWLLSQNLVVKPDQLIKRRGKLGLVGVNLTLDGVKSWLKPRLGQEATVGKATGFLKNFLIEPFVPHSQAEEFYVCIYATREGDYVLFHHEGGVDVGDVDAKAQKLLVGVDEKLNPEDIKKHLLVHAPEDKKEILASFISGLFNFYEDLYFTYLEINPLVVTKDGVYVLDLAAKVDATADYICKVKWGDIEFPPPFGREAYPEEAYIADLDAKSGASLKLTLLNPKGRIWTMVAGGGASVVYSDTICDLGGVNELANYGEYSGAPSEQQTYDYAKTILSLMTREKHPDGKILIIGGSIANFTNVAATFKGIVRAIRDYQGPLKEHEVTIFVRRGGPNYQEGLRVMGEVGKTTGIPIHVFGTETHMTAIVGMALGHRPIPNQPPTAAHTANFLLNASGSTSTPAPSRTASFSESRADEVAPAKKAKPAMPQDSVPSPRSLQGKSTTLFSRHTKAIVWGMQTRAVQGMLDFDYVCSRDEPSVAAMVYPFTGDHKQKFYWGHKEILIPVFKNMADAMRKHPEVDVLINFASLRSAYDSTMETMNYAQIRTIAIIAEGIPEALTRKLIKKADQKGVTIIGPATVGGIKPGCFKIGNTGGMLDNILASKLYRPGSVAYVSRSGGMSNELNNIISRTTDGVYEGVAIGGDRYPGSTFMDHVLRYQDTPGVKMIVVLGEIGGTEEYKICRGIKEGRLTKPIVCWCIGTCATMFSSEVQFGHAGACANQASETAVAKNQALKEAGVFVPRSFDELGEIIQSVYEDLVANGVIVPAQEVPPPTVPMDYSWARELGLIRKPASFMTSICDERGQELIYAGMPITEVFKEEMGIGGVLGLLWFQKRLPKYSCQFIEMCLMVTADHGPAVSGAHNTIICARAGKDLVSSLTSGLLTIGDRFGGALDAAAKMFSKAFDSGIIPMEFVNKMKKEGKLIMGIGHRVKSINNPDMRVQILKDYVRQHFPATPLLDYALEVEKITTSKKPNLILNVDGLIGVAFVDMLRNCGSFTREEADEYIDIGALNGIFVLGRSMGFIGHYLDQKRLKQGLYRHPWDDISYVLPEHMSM
UniProt P14621: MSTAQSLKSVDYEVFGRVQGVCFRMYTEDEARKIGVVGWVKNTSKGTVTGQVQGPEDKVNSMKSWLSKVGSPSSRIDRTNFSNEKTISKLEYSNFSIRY
UniProt Q02040, 136-157: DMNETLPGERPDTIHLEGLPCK
UniProt P55265: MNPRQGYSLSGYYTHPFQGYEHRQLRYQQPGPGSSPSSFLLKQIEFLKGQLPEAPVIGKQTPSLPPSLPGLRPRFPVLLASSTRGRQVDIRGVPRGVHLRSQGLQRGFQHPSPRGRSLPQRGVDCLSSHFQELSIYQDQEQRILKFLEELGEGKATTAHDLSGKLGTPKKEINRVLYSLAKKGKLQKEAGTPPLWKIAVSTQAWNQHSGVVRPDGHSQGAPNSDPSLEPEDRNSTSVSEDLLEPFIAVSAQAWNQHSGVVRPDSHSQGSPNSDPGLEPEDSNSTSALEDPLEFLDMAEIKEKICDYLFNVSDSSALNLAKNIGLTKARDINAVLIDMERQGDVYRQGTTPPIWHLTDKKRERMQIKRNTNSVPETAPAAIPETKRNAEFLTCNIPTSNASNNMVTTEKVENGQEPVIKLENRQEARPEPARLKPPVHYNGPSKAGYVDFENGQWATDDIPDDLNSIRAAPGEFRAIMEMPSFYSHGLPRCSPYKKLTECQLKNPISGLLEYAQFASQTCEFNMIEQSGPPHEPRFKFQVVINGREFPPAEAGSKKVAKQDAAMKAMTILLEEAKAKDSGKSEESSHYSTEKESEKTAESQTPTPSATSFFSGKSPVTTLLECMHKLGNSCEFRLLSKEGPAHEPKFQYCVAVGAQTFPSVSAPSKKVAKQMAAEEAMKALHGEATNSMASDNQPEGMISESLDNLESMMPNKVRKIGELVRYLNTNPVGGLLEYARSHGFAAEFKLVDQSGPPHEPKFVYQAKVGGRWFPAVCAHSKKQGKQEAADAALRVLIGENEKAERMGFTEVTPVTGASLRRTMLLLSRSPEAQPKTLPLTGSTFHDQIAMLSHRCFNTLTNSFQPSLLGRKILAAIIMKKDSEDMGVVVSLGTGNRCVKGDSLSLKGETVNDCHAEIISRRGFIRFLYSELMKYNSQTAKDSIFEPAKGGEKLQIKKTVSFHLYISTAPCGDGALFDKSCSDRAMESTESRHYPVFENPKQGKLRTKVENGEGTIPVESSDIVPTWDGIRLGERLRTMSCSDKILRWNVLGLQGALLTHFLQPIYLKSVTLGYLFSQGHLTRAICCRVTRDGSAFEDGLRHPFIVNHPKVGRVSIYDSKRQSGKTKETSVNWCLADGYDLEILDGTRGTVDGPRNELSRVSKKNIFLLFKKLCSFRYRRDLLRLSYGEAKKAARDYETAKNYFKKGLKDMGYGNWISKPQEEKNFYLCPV
UniProt Q13443: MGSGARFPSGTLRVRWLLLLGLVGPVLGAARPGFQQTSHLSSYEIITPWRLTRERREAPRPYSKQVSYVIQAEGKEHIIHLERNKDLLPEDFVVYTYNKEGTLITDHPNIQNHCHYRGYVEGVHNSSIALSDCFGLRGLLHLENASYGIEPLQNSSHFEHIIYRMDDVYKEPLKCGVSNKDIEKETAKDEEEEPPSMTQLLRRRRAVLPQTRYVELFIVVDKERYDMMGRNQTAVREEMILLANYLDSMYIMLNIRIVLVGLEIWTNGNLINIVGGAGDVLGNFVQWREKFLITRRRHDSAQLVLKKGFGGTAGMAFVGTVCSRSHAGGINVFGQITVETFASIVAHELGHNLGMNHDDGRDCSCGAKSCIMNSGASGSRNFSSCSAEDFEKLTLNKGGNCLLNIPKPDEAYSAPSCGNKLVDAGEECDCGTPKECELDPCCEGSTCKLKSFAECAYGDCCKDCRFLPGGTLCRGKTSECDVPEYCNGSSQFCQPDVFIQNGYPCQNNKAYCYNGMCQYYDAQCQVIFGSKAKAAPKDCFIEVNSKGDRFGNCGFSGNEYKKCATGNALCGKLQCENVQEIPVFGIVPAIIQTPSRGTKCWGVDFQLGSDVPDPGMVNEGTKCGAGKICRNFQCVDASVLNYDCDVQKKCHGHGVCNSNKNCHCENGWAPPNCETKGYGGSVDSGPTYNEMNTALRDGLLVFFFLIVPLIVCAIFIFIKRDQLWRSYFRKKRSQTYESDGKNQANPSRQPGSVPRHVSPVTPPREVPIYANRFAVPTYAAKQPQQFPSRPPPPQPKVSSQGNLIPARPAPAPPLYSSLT
UniProt Q96AP0: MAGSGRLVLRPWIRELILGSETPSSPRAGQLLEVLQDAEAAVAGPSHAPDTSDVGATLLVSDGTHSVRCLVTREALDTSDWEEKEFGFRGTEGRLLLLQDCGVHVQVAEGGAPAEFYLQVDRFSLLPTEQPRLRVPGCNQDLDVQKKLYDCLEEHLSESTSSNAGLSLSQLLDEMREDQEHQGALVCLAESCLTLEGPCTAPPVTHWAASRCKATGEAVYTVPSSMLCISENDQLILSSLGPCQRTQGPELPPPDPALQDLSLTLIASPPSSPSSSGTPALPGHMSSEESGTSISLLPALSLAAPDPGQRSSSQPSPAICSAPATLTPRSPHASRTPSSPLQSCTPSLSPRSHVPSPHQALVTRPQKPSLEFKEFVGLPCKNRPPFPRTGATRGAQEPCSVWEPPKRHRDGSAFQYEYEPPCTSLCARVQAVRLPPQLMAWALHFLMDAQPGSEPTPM
UniProt Q13444: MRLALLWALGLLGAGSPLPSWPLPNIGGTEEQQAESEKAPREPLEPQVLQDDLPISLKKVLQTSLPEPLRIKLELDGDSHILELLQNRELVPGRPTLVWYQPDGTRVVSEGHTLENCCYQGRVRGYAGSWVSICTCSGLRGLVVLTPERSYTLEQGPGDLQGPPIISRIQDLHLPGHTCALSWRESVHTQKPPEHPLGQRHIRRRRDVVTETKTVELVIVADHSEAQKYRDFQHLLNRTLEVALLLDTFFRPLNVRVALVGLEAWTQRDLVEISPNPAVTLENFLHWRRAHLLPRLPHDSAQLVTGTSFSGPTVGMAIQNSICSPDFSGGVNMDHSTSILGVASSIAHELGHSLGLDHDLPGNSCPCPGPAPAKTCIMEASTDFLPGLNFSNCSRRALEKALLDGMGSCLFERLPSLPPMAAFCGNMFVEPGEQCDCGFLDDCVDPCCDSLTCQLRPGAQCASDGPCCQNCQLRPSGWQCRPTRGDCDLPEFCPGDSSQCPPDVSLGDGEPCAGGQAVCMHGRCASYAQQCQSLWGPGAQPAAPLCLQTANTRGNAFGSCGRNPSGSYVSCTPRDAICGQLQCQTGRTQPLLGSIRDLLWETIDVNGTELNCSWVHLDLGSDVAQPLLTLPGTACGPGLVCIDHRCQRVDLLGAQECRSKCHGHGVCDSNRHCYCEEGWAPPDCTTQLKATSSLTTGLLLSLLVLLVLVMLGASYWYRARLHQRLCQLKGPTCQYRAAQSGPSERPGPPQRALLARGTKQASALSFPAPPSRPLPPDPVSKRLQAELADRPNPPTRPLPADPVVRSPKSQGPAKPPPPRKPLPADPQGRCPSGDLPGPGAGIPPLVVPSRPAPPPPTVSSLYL
UniProt O95573: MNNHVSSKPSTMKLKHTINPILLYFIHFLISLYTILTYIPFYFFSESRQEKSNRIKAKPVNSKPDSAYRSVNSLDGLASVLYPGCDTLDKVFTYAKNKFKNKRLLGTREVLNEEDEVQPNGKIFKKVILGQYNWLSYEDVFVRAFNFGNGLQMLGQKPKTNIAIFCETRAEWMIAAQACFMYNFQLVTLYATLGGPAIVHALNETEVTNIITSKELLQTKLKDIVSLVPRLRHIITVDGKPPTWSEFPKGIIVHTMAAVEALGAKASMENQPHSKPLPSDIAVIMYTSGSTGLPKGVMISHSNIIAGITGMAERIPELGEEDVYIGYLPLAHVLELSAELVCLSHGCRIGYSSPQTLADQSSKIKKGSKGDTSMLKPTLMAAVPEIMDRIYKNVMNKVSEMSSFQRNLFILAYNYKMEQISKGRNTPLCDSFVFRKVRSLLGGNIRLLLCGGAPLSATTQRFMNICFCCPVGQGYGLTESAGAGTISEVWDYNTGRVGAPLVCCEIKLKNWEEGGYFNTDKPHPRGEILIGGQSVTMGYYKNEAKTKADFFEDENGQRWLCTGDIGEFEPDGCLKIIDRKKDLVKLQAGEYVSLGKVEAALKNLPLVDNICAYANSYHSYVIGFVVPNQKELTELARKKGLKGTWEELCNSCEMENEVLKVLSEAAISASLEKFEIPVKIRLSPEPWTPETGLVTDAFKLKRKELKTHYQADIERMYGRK
UniProt Q9H3P7: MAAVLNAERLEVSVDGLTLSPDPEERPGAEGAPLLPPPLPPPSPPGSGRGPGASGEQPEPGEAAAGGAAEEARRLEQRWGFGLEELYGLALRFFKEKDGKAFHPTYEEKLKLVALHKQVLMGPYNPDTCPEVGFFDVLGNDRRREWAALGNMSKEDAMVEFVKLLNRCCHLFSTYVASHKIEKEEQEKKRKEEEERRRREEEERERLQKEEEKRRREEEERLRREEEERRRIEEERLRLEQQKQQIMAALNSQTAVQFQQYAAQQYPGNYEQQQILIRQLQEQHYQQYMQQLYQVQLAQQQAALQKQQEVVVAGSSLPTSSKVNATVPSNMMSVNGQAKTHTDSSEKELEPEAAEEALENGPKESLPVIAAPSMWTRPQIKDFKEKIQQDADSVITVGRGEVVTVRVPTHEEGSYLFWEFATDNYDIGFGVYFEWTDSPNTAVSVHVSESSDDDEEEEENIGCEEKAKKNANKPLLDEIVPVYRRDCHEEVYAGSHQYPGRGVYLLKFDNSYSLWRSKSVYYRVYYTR
UniProt Q96CM8: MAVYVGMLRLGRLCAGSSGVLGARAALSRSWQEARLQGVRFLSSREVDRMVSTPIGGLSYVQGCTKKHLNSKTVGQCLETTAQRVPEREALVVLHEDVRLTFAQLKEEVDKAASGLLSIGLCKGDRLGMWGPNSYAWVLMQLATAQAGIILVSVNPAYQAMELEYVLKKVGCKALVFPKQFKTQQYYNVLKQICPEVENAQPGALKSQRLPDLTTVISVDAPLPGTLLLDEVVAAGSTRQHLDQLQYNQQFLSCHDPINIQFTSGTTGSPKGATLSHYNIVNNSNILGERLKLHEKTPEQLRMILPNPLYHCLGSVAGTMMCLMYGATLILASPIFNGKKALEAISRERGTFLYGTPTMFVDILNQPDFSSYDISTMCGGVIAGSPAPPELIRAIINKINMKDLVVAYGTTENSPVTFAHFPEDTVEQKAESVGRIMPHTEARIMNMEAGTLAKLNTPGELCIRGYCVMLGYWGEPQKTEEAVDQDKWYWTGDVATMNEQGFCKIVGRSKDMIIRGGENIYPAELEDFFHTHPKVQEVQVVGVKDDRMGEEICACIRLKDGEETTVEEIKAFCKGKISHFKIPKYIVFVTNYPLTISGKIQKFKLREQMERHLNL

This is one part of the list. The data scatter; read single values as rough.

Compound in one test: ClCC(=O)N[C@@H]1CCCc2ccccc12
The test is described as follows: log2 mean competition ratio of IA-DTB cysteine labelling (DMSO/compound) (log2 ratio); higher = stronger cysteine engagement by compound. The settings on record: 50 µM; treatment time: 4 h; cell line lysate: HEK293T. As for the experimental part: (§1)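 IA-DTB competitive cysteine chemoproteomics in HEK293T RIPA lysate. Lysates were treated with compound 29 or 30 at 50 or 200 µM for 4 h, then IA-DTB (500 µM, 1 h), trypsin-digested, NeutrAvidin-enriched and analysed by diaPASEF. Competition ratio = intensity DMSO / intensity compound (n=4 treated, n=64 DMSO); binding: mean log2 CR ≥ 1 and p ≤ 0.05 plus QC filters. Target is the cysteine site.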
As to AKAP8 C351 (UniProt O43823), the “log2 mean competition ratio” value is -0.258.
With ANKHD1 C535, the “log2 mean competition ratio” value was -0.326.
With ALKBH2 C67 (UniProt Q6NS38), the “log2 mean competition ratio” value is -0.191.
ADCY9 C693 (UniProt O60503): the “log2 mean competition ratio” value is -0.279.
With AFF1 C892 (UniProt P51825), the “log2 mean competition ratio” value was -0.355.
As to ALMS1 C2395 (UniProt Q8TCU4), the “log2 mean competition ratio” value stood at 0.105.
Turning to ACTR3 C235 (UniProt P61158), the “log2 mean competition ratio” value worked out at 0.241.
For the target AFDN C960, the “log2 mean competition ratio” value is -0.0533.
Consider AMOT C781 (UniProt Q4VCS5), for which the “log2 mean competition ratio” value was -0.0906.
For the target AGGF1 C307 (UniProt Q8N302), the “log2 mean competition ratio” value is -0.462.
The same measure, in the same setting: with ACLY C845 (UniProt P53396) the figure was 0.116; with ACYP2 C22 (UniProt P14621), 0.297.
Take AKAP17A C156 (UniProt Q02040): the “log2 mean competition ratio” value was -0.366.
For the target ADH5 C282 (UniProt P11766), the “log2 mean competition ratio” value is -0.09.
The same measure, in the same setting: with ACSS2 C75 (UniProt Q9NR19) the figure was 0.148.
With AGK C334 (UniProt Q53H12), the “log2 mean competition ratio” value is -0.359.
Consider ADAR C1036 (UniProt P55265), for which the “log2 mean competition ratio” value was -0.119.
On to AFDN C841, for which the “log2 mean competition ratio” value was -0.395.
On to ACTR10 C183 (UniProt Q9NZ32), for which the “log2 mean competition ratio” value was -0.224.
ADAM9 C370 (UniProt Q13443): the “log2 mean competition ratio” value worked out at 0.121.
For ACD C320 (UniProt Q96AP0), the “log2 mean competition ratio” value was -0.279.
As to AGFG1 C89 (UniProt P52594), the “log2 mean competition ratio” value is -0.148.
Regarding ACSF3 C399 (UniProt Q4G176), the “log2 mean competition ratio” value was -0.0675.
Same read-out and setting: next, ADAM15 C733 (UniProt Q13444): 0.188; ANK2 C1425 (UniProt Q01484): 0.0348.
The same measure, in the same setting: next, ACOT1 C339: 0.0272.
On the same count and under the same terms, with AKAP12 C1314 (UniProt Q02952) the figure was -0.322; with ALS2 C1376 (UniProt Q96Q42), -0.216.
For AHNAK C2806 (UniProt Q09666), the “log2 mean competition ratio” value is -0.268.
Same read-out and setting: next, ACSL3 C450 (UniProt O95573): 0.104; ADAR C622 (UniProt P55265): 0.171.
Still for that read-out and setting: with ACBD5 C83 (UniProt Q5T8D3) the figure was -0.195.
Still for that read-out and setting: with AIMP2 C143 (UniProt Q13155) the figure was 0.162; with AGTPBP1 C769 (UniProt Q9UPW5), -0.222.
For ADAM15 C560 (UniProt Q13444), the “log2 mean competition ratio” value was -0.303.
In the case of ACBD3 C487 (UniProt Q9H3P7), the “log2 mean competition ratio” value was 0.0954.
ACSF2 C462 (UniProt Q96CM8): the “log2 mean competition ratio” value is -0.24.

Still in this test, the particulars now being: 200 µM; treatment time: 4 h; cell line lysate: HEK293T.
As for AKAP8 C351 (UniProt O43823), the “log2 mean competition ratio” value is -0.226.
Turning to ANKHD1 C535, the “log2 mean competition ratio” value was -0.19.
For ALKBH2 C67 (UniProt Q6NS38), the “log2 mean competition ratio” value is -0.165.
Consider ADCY9 C693 (UniProt O60503), for which the “log2 mean competition ratio” value was found to be 0.252.
On to AFF1 C892 (UniProt P51825), for which the “log2 mean competition ratio” value was -0.417.
For the target ALMS1 C2395 (UniProt Q8TCU4), the “log2 mean competition ratio” value worked out at 0.157.
In the case of ACTR3 C235 (UniProt P61158), the “log2 mean competition ratio” value was found to be 0.0472.
On the same count and under the same terms, with AFDN C960 the figure was 0.273.
In the case of AMOT C781 (UniProt Q4VCS5), the “log2 mean competition ratio” value is 0.051.
Same read-out and setting: with AGGF1 C307 (UniProt Q8N302) the figure was 0.489; with ACLY C845 (UniProt P53396), 0.0797.
Same read-out and setting: next, ACYP2 C22 (UniProt P14621): 0.0839; AKAP17A C156 (UniProt Q02040): 0.496.
Same read-out and setting: next, ADH5 C282 (UniProt P11766): -0.167; ACSS2 C75 (UniProt Q9NR19): -0.045.
With AGK C334 (UniProt Q53H12), the “log2 mean competition ratio” value turned out to be 0.0847.
As for ADAR C1036 (UniProt P55265), the “log2 mean competition ratio” value is 0.208.
AFDN C841: the “log2 mean competition ratio” value amounted to 0.132.
ACTR10 C183 (UniProt Q9NZ32): the “log2 mean competition ratio” value was 0.353.
For the target ADAM9 C370 (UniProt Q13443), the “log2 mean competition ratio” value amounted to 0.345.
Take ACD C320 (UniProt Q96AP0): the “log2 mean competition ratio” value is -0.00223.
As to AGFG1 C89 (UniProt P52594), the “log2 mean competition ratio” value amounted to 0.113.
Regarding ACSF3 C399 (UniProt Q4G176), the “log2 mean competition ratio” value was -0.00113.
As to ADAM15 C733 (UniProt Q13444), the “log2 mean competition ratio” value is 0.285.
Take ANK2 C1425 (UniProt Q01484): the “log2 mean competition ratio” value came to 0.0853.
Same read-out and setting: with ACOT1 C339 the figure was 0.219; with AKAP12 C1314 (UniProt Q02952), -0.091.
Still for that read-out and setting: with ALS2 C1376 (UniProt Q96Q42) the figure was -0.162.
Turning to AHNAK C2806 (UniProt Q09666), the “log2 mean competition ratio” value was -0.145.
Consider ACSL3 C450 (UniProt O95573), for which the “log2 mean competition ratio” value was 0.174.
Take ADAR C622 (UniProt P55265): the “log2 mean competition ratio” value came out at 0.236.
The same measure, in the same setting: next, ACBD5 C83 (UniProt Q5T8D3): 0.433; AIMP2 C143 (UniProt Q13155): -0.226; AGTPBP1 C769 (UniProt Q9UPW5): -0.263.
Regarding ADAM15 C560 (UniProt Q13444), the “log2 mean competition ratio” value was -0.182.
Take ACBD3 C487 (UniProt Q9H3P7): the “log2 mean competition ratio” value is -0.273.
Regarding ACSF2 C462 (UniProt Q96CM8), the “log2 mean competition ratio” value was -0.3.

Compound in the next test: ClCC(=O)N[C@H]1CCCc2ccccc12
The description is as above. The settings on record: 50 µM; treatment time: 4 h; cell line lysate: HEK293T. Here is the method: as §1
Take ANKHD1 C535: the “log2 mean competition ratio” value was 0.386.
Take AFDN C960: the “log2 mean competition ratio” value was -0.132.
Turning to ACLY C845 (UniProt P53396), the “log2 mean competition ratio” value was -0.0861.
ADAR C1036 (UniProt P55265): the “log2 mean competition ratio” value was -0.146.
Consider ADAM9 C370 (UniProt Q13443), for which the “log2 mean competition ratio” value was -0.0319.
Same read-out and setting: next, ACD C320 (UniProt Q96AP0): 0.124; ACSF3 C399 (UniProt Q4G176): -0.209.
As to ACOT1 C339, the “log2 mean competition ratio” value came out at 0.127.
With ACSL3 C450 (UniProt O95573), the “log2 mean competition ratio” value was determined as 0.0649.
On the same count and under the same terms, with ACBD5 C83 (UniProt Q5T8D3) the figure was 0.0554; with AGTPBP1 C769 (UniProt Q9UPW5), 0.0883; with ADAM15 C560 (UniProt Q13444), -0.139.
As to ACBD3 C487 (UniProt Q9H3P7), the “log2 mean competition ratio” value is -0.147.
For the target ACSF2 C462 (UniProt Q96CM8), the “log2 mean competition ratio” value is -0.293.
